These results are taken from article PMC4337568.

Chains of the proteins cited; added tags and fusions are not shown.
UniProt P84077: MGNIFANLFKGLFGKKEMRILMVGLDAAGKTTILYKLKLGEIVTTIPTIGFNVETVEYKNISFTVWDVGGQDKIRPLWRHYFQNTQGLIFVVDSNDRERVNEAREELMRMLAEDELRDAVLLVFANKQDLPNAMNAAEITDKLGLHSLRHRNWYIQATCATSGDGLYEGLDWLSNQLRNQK

No constants are given. Whether binding was seen depends on the method and setting. Some binding calls cover weakened binding; strength is not graded here.

The target of the experiment is myristoylated Arf1, GTP-loaded, anchored to phospholipid-coated silica beads (UniProt P84077). Put plainly: pull-down; myristoylated GTP-loaded Arf1 anchored to phospholipid-coated silica beads, incubated with GGA3^GAT, washed, then incubated 10 min in HKSM (10 mM HEPES pH 7.4, 100 mM KCl, 1 mM MgCl) with buffer or Arf GAPs; beads washed, membrane-bound proteins extracted with SDS-urea, SDS-PAGE and immunoblot; both purified. For orientation: Immunoblotting shows a protein as a band on a membrane.

B1: GAT domain of GGA3 (domain or fragment, UniProt Q9NZ52 171-298)
chain: DEEKSKLLAKLLKSKNPDDLQEANKLIKSMVKEDEARIQKVTKRLHTLEEVNNNVRLLSEMLLHYSQEDSSDGDRELMKELFDQCENKRRTLFKLASETEDNDNSLGDILQASDNLSRVINSYKTIIE
On to B1, for which the binding entry was “binds”.
